Results on 5 molecules are retold here after article doi:10.1101/2024.05.01.591800.

No constants are given. Whether binding was seen depends on the method and setting. In cells and extracts the contact can be indirect. For some of these results: Binding can be weak; no strength is given. Where a sequence is shown, tags or fusion partners need not be part of it.

Assay in all cases: co-IP; 293T cells co-transfected for 48 h with FLAG-GBP5 (WT or mutant) and a MYC-tagged OST subunit; lysates (Pierce IP Lysis Buffer) immunoprecipitated overnight at 4°C with anti-FLAG on Dynabeads Protein G; washes include 500 mM NaCl; anti-MYC blot
The target of test [1] is T1, FLAG-tagged GBP5 (guanylate-binding protein 5) (UniProt Q96PP8).
T1 sequence: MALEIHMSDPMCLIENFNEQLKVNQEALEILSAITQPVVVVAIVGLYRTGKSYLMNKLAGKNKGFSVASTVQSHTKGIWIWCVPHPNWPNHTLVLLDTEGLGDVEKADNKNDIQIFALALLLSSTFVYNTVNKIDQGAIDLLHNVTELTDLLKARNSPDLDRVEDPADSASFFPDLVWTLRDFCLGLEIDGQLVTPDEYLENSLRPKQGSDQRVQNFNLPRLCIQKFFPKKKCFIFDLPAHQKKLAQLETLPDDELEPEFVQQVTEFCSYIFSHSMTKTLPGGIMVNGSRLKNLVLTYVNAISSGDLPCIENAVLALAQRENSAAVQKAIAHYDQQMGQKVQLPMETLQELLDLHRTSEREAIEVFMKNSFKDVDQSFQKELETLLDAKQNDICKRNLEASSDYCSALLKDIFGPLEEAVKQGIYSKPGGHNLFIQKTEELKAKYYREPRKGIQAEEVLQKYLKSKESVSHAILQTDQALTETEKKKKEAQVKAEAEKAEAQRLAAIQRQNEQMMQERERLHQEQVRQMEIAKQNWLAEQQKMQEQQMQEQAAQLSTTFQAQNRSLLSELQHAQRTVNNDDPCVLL

In test [2] the target is FLAG-GBP5 mutant M1 (deletion of the large GTPase (LG) domain).
Test [3] concerns the target FLAG-GBP5 mutant M4 (deletion of the GTPase effector domain (GED)).

In the case of “MYC-tagged DDOST deleted for its C terminal cytoplasmic tail (domain or fragment)”, the binding entry in test [1] was “no binding”.
Still for that read-out and setting: for “MYC-tagged RPN2 deleted for its C terminal cytoplasmic tail (domain or fragment)” the value was “no binding”; for “MYC-tagged RPN1 deleted for its C terminal cytoplasmic tail (domain or fragment)”, “no binding”.

B1: MYC-tagged RPN1 (protein, UniProt P04843 24-607)
chain: ASSEAPPLINEDVKRTVDLSSHLAKVTAEVVLAHLGGGSTSRATSFLLALEPELEARLAHLGVQVKGEDEEENNLEVRETKIKGKSGRFFTVKLPVALDPGAKISVIVETVYTHVLHPYPTQITQSEKQFVVFEGNHYFYSPYPTKTQTMRVKLASRNVESYTKLGNPTRSEDLLDYGPFRDVPAYSQDTFKVHYENNSPFLTITSMTRVIEVSHWGNIAVEENVDLKHTGAVLKGPFSRYDYQRQPDSGISSIRSFKTILPAAAQDVYYRDEIGNVSTSHLLILDDSVEMEIRPRFPLFGGWKTHYIVGYNLPSYEYLYNLGDQYALKMRFVDHVFDEQVIDSLTVKIILPEGAKNIEIDSPYEISRAPDELHYTYLDTFGRPVIVAYKKNLVEQHIQDIVVHYTFNKVLMLQEPLLVVAAFYILFFTVIIYVRLDFSITKDPAAEARMKVACITEQVLTLVNKRIGLYRHFDETVNRYKQSRDISTLNSGKKSLETEHKALTSEIALLQSRLKTEGSDLCDRVSEMQKLDAQVKELVLKSAVEAERLVAGKLKKDTYIENEKLISGKRQELVTKIDHILDAL
In the case of B1, the binding entry in test [2] and in test [3] was “binds” in each case.

B2: MYC-tagged DDOST (protein, UniProt P39656 43-456)
chain: SGPRTLVLLDNLNVRETHSLFFRSLKDRGFELTFKTADDPSLSLIKYGEFLYDNLIIFSPSVEDFGGNINVETISAFIDGGGSVLVAASSDIGDPLRELGSECGIEFDEEKTAVIDHHNYDISDLGQHTLIVADTENLLKAPTIVGKSSLNPILFRGVGMVADPDNPLVLDILTGSSTSYSFFPDKPITQYPHAVGKNTLLIAGLQARNNARVIFSGSLDFFSDSFFNSAVQKAAPGSQRYSQTGNYELAVALSRWVFKEEGVLRVGPVSHHRVGETAPPNAYTVTDLVEYSIVIQQLSNGKWVPFDGDDIQLEFVRIDPFVRTFLKKKGGKYSVQFKLPDVYGVFQFKVDYNRLGYTHLYSSTQVSVRPLQHTQYERFIPSAYPYYASAFSMMLGLFIFSIVFLHMKEKEKSD
With B2, the binding result in test [2] and in test [3] was “binds” throughout.
